Where a name gives a salt, the structure may show the parent alone. The list shows a part of the results. Repeats are few or missing, and single values can be far off.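 Three clinical Candida auris isolates (clades III, IV and I) from the CDC resistance isolate bank were grown in RPMI-1640 at 35°C. Growth was background-corrected OD600 relative to same-plate vehicle-only wells. Hits required over 50% inhibition in at least two strains and a plate-corrected B-score above 0.1.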
Columns and labels:
Assay in all cases: growth relative to vehicle control (OD600 ratio) (fraction); higher = less inhibition
Settings in all cases: 24 h
C. auris AR-384 = test system: C. auris AR-384
C. auris AR-386 = test system: C. auris AR-386
C. auris AR-387 = test system: C. auris AR-387

Compound | growth (C. auris AR-384; 1 µM) | growth (C. auris AR-384; 10 µM) | growth (C. auris AR-386; 1 µM) | growth (C. auris AR-386; 10 µM) | growth (C. auris AR-387; 1 µM) | growth (C. auris AR-387; 10 µM)
C#CCC(Cc1cnc2nc(N)nc(N)c2n1)c1ccc(C(=O)N[C@@H](CCC(=O)O)C(=O)O)cc1 (stereo partly drawn) [Pralatrexate] | 1.02 | 1.05 | 1.18 | 1.27 | 1.08 | 1.15
CCCc1cc(=O)[nH]c(=S)[nH]1 [Propylthiouracil] | 0.74 | 0.51 | 0.74 | 0.95 | 0.76 | 0.59
CN(C)CC/C=C1/c2ccccc2Sc2ccc(Cl)cc21 [Chlorprothixene] | 0.94 | 0.98 | 0.73 | 0.63 | 0.86 | 1.04
CCCC(C(=O)OCCN(CC)CC)(c1ccccc1)c1ccccc1 [Proadifen HCl] | 0.92 | 0.94 | 1.01 | 0.66 | 0.61 | 0.79
CC(C(=O)O)c1ccc2c(c1)Cc1cccnc1O2 (stereo not drawn) [Pranoprofen] | 0.86 | 1 | 0.91 | 0.83 | 0.64 | 0.65
Clc1ccc2c(c1)C(N1CCNCC1)=Nc1ccccc1O2 [Amoxapine] | 0.93 | 0.89 | 1.13 | 0.75 | 0.76 | 1.12
C[C@]12C=CC(=O)N[C@@H]1CC[C@@H]1[C@@H]2CC[C@]2(C)[C@@H](C(=O)Nc3cc(C(F)(F)F)ccc3C(F)(F)F)CC[C@@H]12 [Dutasteride] | 1.44 | 1.14 | 1.37 | 1.31 | 1.03 | 1.17
CCN(CC)CCOCCOC(=O)C(CC)(CC)c1ccccc1 [Oxeladin Citrate] | 0.98 | 0.91 | 0.97 | 0.92 | 0.94 | 1.02
CCNC(=O)[C@@H]1CCCN1C(=O)[C@H](CCCNC(=N)N)NC(=O)[C@H](CC(C)C)NC(=O)[C@@H](CC(C)C)NC(=O)[C@H](Cc1ccc(O)cc1)NC(=O)[C@H](CO)NC(=O)[C@H](Cc1c[nH]c2ccccc12)NC(=O)[C@H](Cc1c[nH]cn1)NC(=O)[C@@H]1CCC(=O)N1 [Leuprolide Acetate] | 1.27 | 1.22 | 1.76 | 1.26 | 1.78 | 1.24
COCC(=O)Nc1c(I)c(C(=O)NCC(O)CO)c(I)c(C(=O)N(C)CC(O)CO)c1I (stereo not drawn) [Iopromide] | 0.83 | 0.84 | 0.78 | 0.68 | 1.04 | 1.07
NC12CC3CC(CC(C3)C1)C2 [Amantadine HCl] | 1.24 | 1.1 | 1.27 | 0.98 | 0.98 | 1.04
Cc1cn(-c2cc(NC(=O)c3ccc(C)c(Nc4nccc(-c5cccnc5)n4)c3)cc(C(F)(F)F)c2)cn1 [Nilotinib (AMN-107)] | 0.79 | 0.63 | 0.71 | 1.05 | 0.83 | 0.89
Oc1c(Br)cc(Br)c2cccnc12 [Broxyquinoline] | 0.19 | 0.17 | 0.01 | 0.05 | 0.07 | 0.04
Cc1cn(-c2cc(NC(=O)c3ccc(C)c(Nc4nccc(-c5cnccn5)n4)c3)cc(C(F)(F)F)c2)cn1 [Radotinib] | 0.89 | 1.01 | 0.89 | 0.76 | 0.8 | 0.71
COC(=O)C1=C(C)NC(C)=C(C(=O)OC)C1c1ccccc1[N+](=O)[O-] [Nifedipine] | 0.65 | 0.57 | 0.88 | 0.82 | 0.91 | 1.03
CN(C)[C@@H]1C(O)=C(C(N)=O)C(=O)[C@@]2(O)C(O)=C3C(=O)c4c(O)ccc(Cl)c4[C@@](C)(O)[C@H]3C[C@@H]12 [Chlortetracycline HCl] | 1.03 | 0.88 | 0.58 | 0.67 | 0.85 | 0.85
O=C(O)c1cc(-c2ccccc2)nc2ccccc12 [Cinchophen] | 0.77 | 0.74 | 0.88 | 1 | 0.77 | 0.81
O=C(N[C@H](CO)[C@H](O)c1ccc([N+](=O)[O-])cc1)C(Cl)Cl [Chloramphenicol] | 0.87 | 0.92 | 0.75 | 0.76 | 0.68 | 0.82
CC(=O)O[C@]1(C(C)=O)CC[C@H]2[C@@H]3C=C(Cl)C4=CC(=O)CC[C@]4(C)[C@H]3CC[C@@]21C [Chlormadinone acetate] | 1.11 | 1.27 | 1.03 | 1 | 0.94 | 1.44
NCCC(O)(P(=O)(O)O)P(=O)(O)O [Pamidronate Disodium] | 0.61 | 0.83 | 0.66 | 0.94 | 0.84 | 0.74
CC(=O)OCC(=O)[C@@]12OC(C)(C)O[C@@H]1C[C@H]1[C@@H]3C[C@H](F)C4=CC(=O)C=C[C@]4(C)[C@@]3(F)[C@@H](O)C[C@@]12C [Fluocinonide] | 1.14 | 1.2 | 1.33 | 1.12 | 1.18 | 1.02
Oc1ccc(Cl)c2cccnc12 [Cloxiquine] | 1.07 | 0.78 | 0.73 | 0.24 | 0.72 | 0.31

For convenience, some entries already given:
Compound | growth (C. auris AR-384; 1 µM) | growth (C. auris AR-384; 10 µM) | growth (C. auris AR-386; 1 µM) | growth (C. auris AR-386; 10 µM) | growth (C. auris AR-387; 1 µM) | growth (C. auris AR-387; 10 µM)
COCC(=O)Nc1c(I)c(C(=O)NCC(O)CO)c(I)c(C(=O)N(C)CC(O)CO)c1I (stereo not drawn) [Iopromide] | 0.83 | 0.84 | 0.78 | 0.68 | 1.04 | 1.07
NC12CC3CC(CC(C3)C1)C2 [Amantadine HCl] | 1.24 | 1.1 | 1.27 | 0.98 | 0.98 | 1.04

Additional compounds

Compound | growth (C. auris AR-384; 1 µM) | growth (C. auris AR-384; 10 µM) | growth (C. auris AR-386; 1 µM) | growth (C. auris AR-386; 10 µM) | growth (C. auris AR-387; 1 µM) | growth (C. auris AR-387; 10 µM)
CNC(=C[N+](=O)[O-])NCCSCc1ccc(CN(C)C)o1 [Ranitidine Hydrochloride] | 0.91 | 0.91 | 0.9 | 0.94 | 1.01 | 1
O=C(O)/C=C/c1ccc(Cn2ccnc2)cc1 [Ozagrel] | 0.71 | 0.92 | 0.62 | 0.85 | 0.99 | 0.98
CC(C)[C@H](N)C(=O)OCC(CO)OCn1cnc2c(=O)[nH]c(N)nc21 (stereo partly drawn) [Valganciclovir HCl] | 0.9 | 0.84 | 0.79 | 0.88 | 0.85 | 1.08
NCCCC[C@H](N[C@@H](CCc1ccccc1)C(=O)O)C(=O)N1CCC[C@H]1C(=O)O [Lisinopril] | 0.69 | 0.51 | 0.88 | 0.8 | 0.66 | 0.61
COc1cc2c(cc1OC)C(=O)C(CC1CCN(Cc3ccccc3)CC1)C2 (stereo not drawn) [Donepezil HCl] | 1.35 | 1.28 | 0.9 | 0.99 | 0.94 | 0.95
CC(C)c1cc(C(=O)N2Cc3ccc(CN4CCN(C)CC4)cc3C2)c(O)cc1O | 1.25 | 0.89 | 1.3 | 1.59 | 1.45 | 1.48
CCOc1ccc(NC(C)=O)cc1 [Phenacetin] | 0.95 | 0.92 | 1.11 | 0.74 | 0.95 | 0.71
CN1CCC[C@H]1c1cccnc1 [Nicotine Ditartrate] | 1.08 | 0.89 | 0.93 | 1 | 0.91 | 0.92
NC(=O)C1CCCc2c1[nH]c1ccc(Cl)cc21 (stereo not drawn) [Selisistat (EX 527)] | 0.97 | 0.92 | 1.29 | 1.36 | 0.92 | 0.98
CC#CCn1c(N2CCC[C@@H](N)C2)nc2c1c(=O)n(Cc1nc(C)c3ccccc3n1)c(=O)n2C [Linagliptin] | 1.01 | 0.84 | 0.65 | 1.3 | 0.95 | 0.97
NS(=O)(=O)c1cc2c(cc1Cl)N=CNS2(=O)=O [Chlorothiazide] | 1.34 | 0.82 | 0.61 | 1.22 | 0.88 | 0.98
O=C(CCNNC(=O)c1ccncc1)NCc1ccccc1 [Nialamide] | 1.21 | 1.22 | 0.95 | 0.98 | 0.95 | 0.8
COc1ccc(CC(C)NCC(O)c2ccc(O)c(NC=O)c2)cc1 (stereo not drawn) [Formoterol Hemifumarate] | 1.03 | 0.84 | 1.01 | 1.24 | 1.08 | 1.09
CN(C)C(=O)C(CCN1CCC(O)(c2ccc(Cl)cc2)CC1)(c1ccccc1)c1ccccc1 [Loperamide HCl] | 1.35 | 1.3 | 1.18 | 0.92 | 0.92 | 1.02
CNC(=O)CN(CCN(CCN(CC(=O)[O-])CC(=O)NC)CC(=O)[O-])CC(=O)[O-].O.[Gd+3] [Gadodiamide Hydrate] | 0.74 | 0.82 | 0.84 | 0.89 | 0.88 | 1.06
CCOc1ccc(Cc2cc([C@@H]3O[C@H](SC)[C@@H](O)[C@H](O)[C@H]3O)ccc2Cl)cc1 [Sotagliflozin (LX4211)] | 1.19 | 1.3 | 1.19 | 1.36 | 1.37 | 1.44
CC(=O)N[C@@H](CCC(N)=O)C(=O)O [Aceglutamide] | 0.74 | 0.89 | 0.75 | 0.96 | 0.92 | 0.77
CS(=O)(=O)Nc1ccc([N+](=O)[O-])cc1Oc1ccccc1 [Nimesulide] | 0.85 | 0.91 | 0.82 | 0.58 | 0.71 | 0.8
Cc1c(Nc2ncccc2C(=O)O)cccc1C(F)(F)F [Flunixin Meglumin] | 0.83 | 0.95 | 1.04 | 0.67 | 0.68 | 0.85
C[C@H](Cc1cc2c(c(C(N)=O)c1)N(CCCO)CC2)NCCOc1ccccc1OCC(F)(F)F [Silodosin] | 1.06 | 0.99 | 1.01 | 1.21 | 0.91 | 1.01
NC1=NCC2c3ccccc3Cc3ccccc3N12 (stereo not drawn) [Epinastine HCl] | 0.81 | 0.8 | 0.63 | 0.75 | 0.62 | 0.65
